According to patent US7999004B2, “Compounds having estrogenic activity” (National Taiwan University, priority 2007, dated 2011):
For at least one compound, name, drawing or mass did not settle the structure.

Amino acid sequences for entries named in this document (tags omitted). Residues count along the entry.
UniProt Q92731, 264-498 limits assumed: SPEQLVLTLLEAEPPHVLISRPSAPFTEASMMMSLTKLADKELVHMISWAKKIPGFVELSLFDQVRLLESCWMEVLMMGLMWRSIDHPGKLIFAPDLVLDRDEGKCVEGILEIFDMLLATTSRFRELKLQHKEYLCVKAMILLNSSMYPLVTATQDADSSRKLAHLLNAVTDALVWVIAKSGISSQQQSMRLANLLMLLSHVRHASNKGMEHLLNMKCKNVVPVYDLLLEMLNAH

Molecular target: T1, GAL4-hERβ (Homo sapiens, UniProt Q92731)
T1 construct: GAL4hERα (or β) LBD chimeric receptors; expressed in transfected cells; host or cells: CHO-K1 (CCRC 60006), transient co-transfection with Fugene 6
Experiment: Transactivation assay for estrogen activity, GAL4-hERβ LBD chimeric receptor with (UAS)4-alkaline phosphatase reporter in CHO-K1 cells
Assay type: cell-based
Conditions: dose response curve

Cc1c(C)c2c(c(C)c1O)CC[C@@](C)(CCC[C@H](C)CCC[C@H](C)CCCC(C)C)O2 [compound 1, RRR-α-tocopherol]
ALP activity with increasing concentration, GAL4-hERβ: dose-dependent increase | concentration at which the maximal activation of ERβ is achieved: 20 µg/mL | concentration at which the maximal activation of ERβ is achieved (value in parentheses): 46.5 µM
